Five substances from patent US4543349A (priority 1984, dated 1985) can be followed below.

For part of these data: Some peptides are written in HELM: one residue between dots, names in brackets for other building blocks, links after the first $.

Data set [1] is described as follows: general procedure: Boc solid-phase peptide synthesis; Boc-Cys-Merrifield resin (Example 7); DCC / 1-hydroxybenzotriazole (solution tail coupling). Particulars: late stage modification step.
Data set [2] can be described thus: general procedure: Boc solid-phase peptide synthesis; Merrifield resin; DCC / 1-hydroxybenzotriazole (solution tail coupling). The note with it: whole synthesis, scale 0.5 mmole.

For the substance “PEPTIDE1{[Pmp].[D-Tyr(Et)].F.V.N.C.P.[Cad]}$PEPTIDE1,PEPTIDE1,1:R3-6:R3$$$V2.0”, the step yield in data set [1] stood at 30%.

Substance “PEPTIDE1{[Pmp].[dY].F.V.N.C.P.[Cad]}$PEPTIDE1,PEPTIDE1,1:R3-6:R3$$$V2.0” returned a step yield in data set [1] of 17%.

“PEPTIDE1{[Pmp].[D-Tyr(Et)].F.V.N.C.[Cad]}$PEPTIDE1,PEPTIDE1,1:R3-6:R3$$$V2.0” gave a step yield in data set [1] of 13%.

Turning to “PEPTIDE1{[Pmp].[D-Tyr(Et)].F.V.N.C.P.[Put(G)]}$PEPTIDE1,PEPTIDE1,1:R3-6:R3$$$V2.0”, the step yield in data set [1] worked out at 64%. Besides, the “final purity (method not given)” value in data set [1] (HPLC (5μ Ultrasphere ODS / C-18)) is reported as 85%.

The substance D-Tyr(Et)^2 -Pro^7 peptide displayed an isolated mass in data set [2] of 189 mg.
